Values from PubChem BioAssay AID1259308 (NCATS, 2017).

Test: 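Knock-downs that increase output of a recombinant reporter protein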 (primary screen)
Cells: human HEK293 embryonic kidney cells stably expressing firefly luciferase (HEK-CMV-Luc2-Hygro)
Reagents: single siRNA against human genes, 0.8 pmol siRNA per well
Timing: 72 h
Measurement: 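Luciferase light (ONE-Glo) measured on one replicate plate set and viability (CellTiter-Glo) on the other, scaled to a negative control siRNA, with robust z-scores and luciferase per cell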
Reading the numbers: total luciferase, z-score: higher = more reporter protein produced
Call rule: 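Active when the median/MAD z-score for overall luciferase is greater than 3; a gene was taken forward for validation with new siRNAs if at least two of its three siRNAs passed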
Meaning of the calls: active = raised luciferase; inactive = no rise
The whole screen tested about 59,000 reagents; this is a random part of them. Of all reagents, about 1,510 (2.6%) are marked active. 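Calls use total luciferase alone and ignore viability, so some active siRNAs may act by altering cell number.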 Reagents against one gene are numbered here. Further read-outs or replicates are left out here.

SLC16A8 #1 | total luciferase, z-score = 3.13; Outcome = active
SLC16A8 #2 | total luciferase, z-score = 1.18; Outcome = inactive
SLC16A8 #3 | total luciferase, z-score = 0.846; Outcome = inactive
ANKRD30A (ankyrin repeat domain 30A) #1 | total luciferase, z-score = -1.49; Outcome = inactive
ANKRD30A (ankyrin repeat domain 30A) #2 | total luciferase, z-score = -0.618; Outcome = inactive
ANKRD30A (ankyrin repeat domain 30A) #3 | total luciferase, z-score = -1.28; Outcome = inactive
SPCS2 (signal peptidase complex subunit 2) #1 | total luciferase, z-score = -1.14; Outcome = inactive
SPCS2 (signal peptidase complex subunit 2) #2 | total luciferase, z-score = 0.508; Outcome = inactive
SPCS2 (signal peptidase complex subunit 2) #3 | total luciferase, z-score = 2.72; Outcome = inactive
LIN54 (lin-54 DREAM MuvB core complex component) #1 | total luciferase, z-score = -1.08; Outcome = inactive
LIN54 (lin-54 DREAM MuvB core complex component) #2 | total luciferase, z-score = -1.43; Outcome = inactive
LIN54 (lin-54 DREAM MuvB core complex component) #3 | total luciferase, z-score = -1.72; Outcome = inactive
RPL31P50 (ribosomal protein L31 pseudogene 50) #1 | total luciferase, z-score = -2.2; Outcome = inactive
RPL31P50 (ribosomal protein L31 pseudogene 50) #2 | total luciferase, z-score = -0.352; Outcome = inactive
RPL31P50 (ribosomal protein L31 pseudogene 50) #3 | total luciferase, z-score = -0.372; Outcome = inactive
GDF1 (growth differentiation factor 1) #1 | total luciferase, z-score = -0.356; Outcome = inactive
GDF1 (growth differentiation factor 1) #2 | total luciferase, z-score = -1.56; Outcome = inactive
GDF1 (growth differentiation factor 1) #3 | total luciferase, z-score = -2.01; Outcome = inactive

Active calls, among the entries above:
SLC16A8 #1 | total luciferase, z-score = 3.13; Outcome = active

The listing continues:
LRRC14 (leucine rich repeat containing 14) #1 | total luciferase, z-score = 0.204; Outcome = inactive
LRRC14 (leucine rich repeat containing 14) #2 | total luciferase, z-score = -0.58; Outcome = inactive
LRRC14 (leucine rich repeat containing 14) #3 | total luciferase, z-score = 1.17; Outcome = inactive
MCMDC2 (minichromosome maintenance domain containing 2) #1 | total luciferase, z-score = -0.512; Outcome = inactive
MCMDC2 (minichromosome maintenance domain containing 2) #2 | total luciferase, z-score = -1.71; Outcome = inactive
MCMDC2 (minichromosome maintenance domain containing 2) #3 | total luciferase, z-score = -1.85; Outcome = inactive
IGSF10 (immunoglobulin superfamily member 10) #1 | total luciferase, z-score = -1.21; Outcome = inactive
IGSF10 (immunoglobulin superfamily member 10) #2 | total luciferase, z-score = 0.19; Outcome = inactive
IGSF10 (immunoglobulin superfamily member 10) #3 | total luciferase, z-score = -0.69; Outcome = inactive
HEPH (hephaestin) #1 | total luciferase, z-score = 0.792; Outcome = inactive
HEPH (hephaestin) #2 | total luciferase, z-score = -0.00815; Outcome = inactive
HEPH (hephaestin) #3 | total luciferase, z-score = 1.51; Outcome = inactive
FAM228A (family with sequence similarity 228 member A) #1 | total luciferase, z-score = 0.31; Outcome = inactive
FAM228A (family with sequence similarity 228 member A) #2 | total luciferase, z-score = 0.166; Outcome = inactive
FAM228A (family with sequence similarity 228 member A) #3 | total luciferase, z-score = 0.654; Outcome = inactive
